# In PubChem BioAssay AID2685 (National Center for Advancing Translational Sciences (NCATS), 2010):
# This is one part of the list. These are further read-outs of the screen, such as a control signal, another cell line or another target. No call is given for them. Compounds called inactive in the main read-out are mostly missing here. The note in brackets gives the kind of curve behind each potency; many fits are weak.
# Assay: qHTS Assay for Lipid Storage Modulators in Drosophila S3 Cells;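 as to cell number change: cells counted by Cell Tracker Red CMTPX staining in the red channel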
# Conditions: BODIPY lipid droplet fluorescence, 18-24 h; for cell number change: measured here: cell count max response, cells fed with added oleic acid
# Summary of the method: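 Laser-scanning cytometry quantifies lipid droplet accumulation (500–530 nm total intensity; droplet/cell object ratio) in oleic acid-fed (400 uM added) Drosophila S3 cells treated with a concentration series. 20 uM Triacsin C defined 100% inhibition.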
# [1] = measured here: cell number channel AC50, cells fed with added oleic acid
# [2] = measured here: lipid fluorescence (Fed channel) AC50, cells fed with added oleic acid
Compound,cell number change [%],AC50 [1],AC50 [2]
Cc1cccc(-n2c(SCc3ccc([N+](=O)[O-])cc3)nnc2-c2c[nH]c3ccccc23)c1,22.9,"0.731 µM [rising, partial curve, poor fit]","13 µM [rising, partial curve]"
COc1ccc(NC(=O)c2nn(C)c(C(=O)Nc3ccc(OC)cc3)c2[N+](=O)[O-])cc1,78.3,"18.4 µM [rising, partial curve]","0.58 µM [rising, single point]"
N#Cc1c(N)n(CCc2ccc(F)cc2)c2nc3ccccc3nc12,–,"0.366 µM [rising, full curve]","1.16 µM [rising, full curve]"
Clc1ccc(Cc2noc(Cc3ccccc3)n2)cc1Cl,–,–,"0.58 µM [falling, single point]"
COc1ccc(C2=NN(c3nc(-c4ccccc4)c(CC(=O)O)s3)C(c3ccco3)C2)cc1 (centres undefined),40.3,"2.31 µM [rising, partial curve]","1.46 µM [rising, partial curve]"
CC(C)C12CCC(C(=O)O)C(C1)C(=O)O2 (centres undefined),1.76,–,"18.4 µM [rising, single point]"
CCNC(=S)N/N=C/c1ccc(OCC(=O)Nc2ccc(OC)cc2)c(OC)c1,33.9,"29.1 µM [rising, single point]","2.06 µM [rising, full curve]"
Cc1c(/C=N/NC(=O)C2(O)c3ccccc3-c3ccccc32)cnn1C,-0.197,"6.51 µM [falling, single point]","6.51 µM [falling, single point]"
O=C(N/N=C\c1cc([N+](=O)[O-])ccc1N1CCCC1)c1ccccn1,-0.639,–,"6.51 µM [rising, single point]"
CC(C)(C)c1ccc(S(=O)(=O)NCc2ccc(C(=O)N3CCCC3)cc2)cc1,84.6,"18.4 µM [rising, single point]","29.1 µM [rising, single point]"
COc1ccc(CN(C)C(=O)c2[nH]c(C)c(C(C)=O)c2C)cc1F,–,–,"29.1 µM [falling, partial curve, poor fit]"
O=C(O)CCNS(=O)(=O)c1ccc2ccccc2c1,10.7,–,"6.51 µM [falling, single point]"
COc1cccc(N2CCN(c3ccc4nnc(CCC(=O)Nc5ccc(C)cn5)n4n3)CC2)c1,5.19,–,"23.1 µM [falling, partial curve]"
O=C(N/N=C/c1ccc(N2CCOCC2)s1)c1ccc(NS(=O)(=O)c2cccs2)cc1,9.78,"6.51 µM [falling, single point]","0.092 µM [falling, full curve, poor fit]"
O=C(Nc1ccc(S(=O)(=O)N2CCCC2)cc1)N1c2ccccc2Sc2ccccc21,135,–,"0.326 µM [falling, full curve]"
CCOC(=O)CNC(=O)CSc1nnc(COc2ccc(Cl)cc2)n1CC,59.7,"0.206 µM [rising, full curve]","0.411 µM [rising, partial curve]"
CCC(C(=O)OCC(=O)Nc1ccc2[nH]c(=O)[nH]c2c1)c1ccccc1 (centres undefined),17.2,–,"29.1 µM [rising, single point]"
CCCNC(=O)CN(c1cccc(F)c1)S(C)(=O)=O,-9.58,–,"2.59 µM [rising, full curve, poor fit]"
Cc1cc(C(=O)COC(=O)CNC(=O)c2ccccc2)c(C)n1CC1CCCO1 (centres undefined),4.93,–,"1.16 µM [falling, full curve]"
CCCn1c(SCC(=O)NC2CC2)nnc1-c1ccccn1,15.4,–,"6.51 µM [rising, partial curve, poor fit]"
O=C1NC(=O)C2(CCCCCCCCCCC2)N1,1.28,–,–
O=C1c2ccccc2C(=O)N1CCc1c[nH]c2ccc(O)cc12,9.29,–,"0.651 µM [rising, partial curve, poor fit]"
CN(C)CCCN(C(=O)c1ccc(S(=O)(=O)N2CCc3ccccc32)cc1)c1nc2c(Cl)cccc2s1,35.1,"29.1 µM [rising, single point]","29.1 µM [rising, partial curve]"
O=C(c1cccc(Cl)c1)C1CCCN(C(=O)c2ccc3c(c2)OCO3)C1 (centres undefined),0.885,–,"4.61 µM [falling, single point]"
CC(OC(=O)CCN=C1NS(=O)(=O)c2ccccc21)C(=O)Nc1ccccc1F (centres undefined),30.8,"32.6 µM [rising, single point]",–
O=C(CCCCl)NC1=NN(c2ccccc2)C(=O)C1,13,–,"0.651 µM [rising, partial curve]"
CSc1ccccc1C(=O)NCCc1ccc(S(=O)(=O)N2CCCCC2)cc1,44.7,"29.1 µM [rising, single point]",–
O=C(NCCN1CCOCC1)c1ccc(Cl)c(S(=O)(=O)N2CCOCC2)c1,23.7,"0.326 µM [rising, full curve, poor fit]","1.46 µM [rising, full curve]"

# Limited to AC50 [2] (5 entries from above):
Compound	AC50 [2]
Cc1c(/C=N/NC(=O)C2(O)c3ccccc3-c3ccccc32)cnn1C	6.51 µM [falling, single point]
COc1cccc(N2CCN(c3ccc4nnc(CCC(=O)Nc5ccc(C)cn5)n4n3)CC2)c1	23.1 µM [falling, partial curve]
CCC(C(=O)OCC(=O)Nc1ccc2[nH]c(=O)[nH]c2c1)c1ccccc1 (centres undefined)	29.1 µM [rising, single point]
CCCNC(=O)CN(c1cccc(F)c1)S(C)(=O)=O	2.59 µM [rising, full curve, poor fit]
O=C(c1cccc(Cl)c1)C1CCCN(C(=O)c2ccc3c(c2)OCO3)C1 (centres undefined)	4.61 µM [falling, single point]

# Continuation.

Compound,cell number change [%],AC50 [1],AC50 [2]
O=C(Cc1ccccc1)NNC(=O)c1ccc(Br)o1,-4.42,–,"20.6 µM [rising, partial curve]"
O=C(CSc1ccc2nnc(-c3ccncc3)n2n1)Nc1ccc2c(c1)OCO2,-10.8,"4.11 µM [falling, single point]","0.58 µM [falling, single point]"
COc1ccc(C(=O)N2CCCC(CCC(=O)NCc3ccccc3F)C2)c(OC)n1 (centres undefined),-17,–,"29.1 µM [falling, single point]"
CNC(=S)N/N=C/c1cc(Br)c(OCc2ccncc2)c(OC)c1,-9.97,–,"18.4 µM [falling, single point]"
Cc1cccnc1NC(=O)c1ccc(Br)o1,29.3,–,–
COc1cc(NC(=O)c2cccc(C)c2)c(OC)cc1NC(=O)CN1CCOCC1,–,"6.51 µM [falling, single point]","0.651 µM [rising, single point]"
CCCOc1ccc(NC(=O)C2CC(=O)N3CCCN=C3S2)cc1 (centres undefined),8.5,–,–
OCCN(Cc1ccccc1)Cc1ccc(C(F)(F)F)cc1,-49.2,"20.6 µM [falling, single point]","23.1 µM [falling, single point]"
Cc1cccc(C(=O)Nc2cc(S(=O)(=O)N3CCOCC3)ccc2N2CCCCC2)c1,18.9,–,"0.92 µM [rising, full curve, poor fit]"
Cc1cccc(N2CCN(S(=O)(=O)c3ccc4c(c3)OCCO4)CC2)c1C,15.5,–,"29.1 µM [rising, single point]"
CCOc1cc(C(=O)N/N=C/C(Br)=C/c2ccccc2)cc(OCC)c1OCC,10.6,–,"1.03 µM [rising, partial curve]"
O=C(Nc1ccc(S(=O)(=O)Nc2ncccn2)cc1)C1COc2ccccc2O1 (centres undefined),-3.85,"0.00517 µM [falling, full curve, poor fit]",–
Cc1c(NC(=O)CSc2nc3ccccc3n2C)c(=O)n(-c2ccccc2)n1C,10.3,–,"29.1 µM [falling, single point]"
CN1CCN(C(=O)C2CCC(CNS(=O)(=O)c3cccc4cccnc34)CC2)CC1 (centres undefined),-12.7,"2.06 µM [falling, single point]","0.259 µM [falling, full curve, poor fit]"
O=C(CSc1nc2cc3c(cc2c(=O)n1CCC1=CCCCC1)OCO3)NCc1ccco1,-2.39,–,"1.46 µM [falling, partial curve, poor fit]"
OC(CN1CCN(C(c2ccccc2)c2ccccc2)CC1)c1ccccc1 (centres undefined),-52.2,"18.4 µM [falling, single point]","23.1 µM [falling, single point]"
CCNC(=O)N1C(CC(=O)OCC)C(=O)NC2CCCCC21 (centres undefined),-140,"25.9 µM [falling, partial curve]","1.46 µM [falling, partial curve]"
COC(=O)c1ccc(NC(=O)C(=O)N2CCN(C(=S)Nc3ccccc3OC)CC2)cc1,–,–,"20.6 µM [rising, single point]"
N#CCCN(C(=O)COC(=O)c1ccc(S(=O)(=O)N2CCCC2)cc1)c1cccc(Cl)c1,-22.3,"0.517 µM [falling, full curve]",–
CC1CC1C(=O)Nc1nc(-c2cccs2)c(-c2cccs2)s1 (centres undefined),–,–,"14.6 µM [rising, partial curve]"
CC(C)C(C(=O)NCc1ccco1)N(Cc1ccco1)C(=O)CNS(=O)(=O)c1ccc(F)cc1 (centres undefined),-16.2,–,–
CCC1Oc2ccc(C)cc2N(CC(=O)N(Cc2cccnc2)Cc2ccc(C)o2)C1=O (centres undefined),–,–,"0.651 µM [rising, single point]"
CCN(CC)c1ccc(NC(=O)CN2CCN(c3nc(C)cc(C)n3)CC2)cc1,-11.7,–,–
CN(C)S(=O)(=O)c1ccc(NC(=O)c2ccccn2)cc1,–,–,"2.91 µM [rising, partial curve, poor fit]"
CCCCNC(=O)CS(=O)Cc1nc(-c2ccc(C)cc2)oc1C (centres undefined),39.2,"20.6 µM [rising, partial curve]",–
COc1ccc(-c2csc(NC(=O)CSCC(=O)Nc3cc(C)on3)n2)c(OC)c1,10.9,–,"0.259 µM [rising, partial curve, poor fit]"
CCOC(=O)c1cccc(NC(=O)/C=C/c2ccc([N+](=O)[O-])cc2)c1,34.4,"5.8 µM [rising, partial curve]",–
